Measured values from EP1383510B1, “BISPHOSPHONATE CONJUGATES AND METHODS OF MAKING AND USING THE SAME” (priority 2001, dated 2002).

Experiment: Binding of novel bisphosphonate conjugates on hydroxyapatite powder (UV spectra before/after treatment)
Settings: for peaks absorbency Before Hydroxyapatite addition: pH 7.0, 0.1 M Tris-HCl, 0.15 M NaCl, at peak wavelength; for peaks absorbency After Hydroxyapatite addition: supernatant after 10 minutes shaking with hydroxyapatite, pH 7.0
Description: To estimate the binding of NBC on hydroxyapatite (the mineral component of bone) UV spectra of NBC at pH7 were recorded before and after treatment with hydroxyapatite. […] The supernatant was separated and an absorption spectrum of the supernatant was recorded.

Row | Structure (SMILES) | peaks absorbency Before Hydroxyapatite addition | peaks absorbency After Hydroxyapatite addition
1 | Cc1ncc(COP(=O)(O)O)c(CNCCC(O)(P(=O)(O)O)P(=O)(O)O)c1O [(i), 3 - (N-[5 '-phospho] -pyridoxylamino) -1-hydroxypropyliden-1,1-bisphosphonic acid] | 0,391 | 0
2 | Cc1ncc(CO)c(CNCCC(O)(P(=O)(O)O)P(=O)(O)O)c1O [(ii), 3-(N-pyridoxylamino) -1-hydroxypropyliden-1,1-bisphosphonic acid] | 0,758 | 0
3 | Cc1ncc(COP(=O)(O)O)c(CNC(P(=O)(O)O)P(=O)(O)O)c1O [(iii), 1 - (N-[5 '-phospho] -pyridoxylamino)-methylene-1,1-bisphosphonic acid] | 0,462 | 0
4 | Cc1ncc(CO)c(CNC(P(=O)(O)O)P(=O)(O)O)c1O [(iv), 1 -(N-pyridoxyl amino) -methylen-1, 1 -bisphosphonic acid] | 0,463 | 0
5 | O=c1[nH]c(=O)n(COCCOCCOP(=O)(O)CP(=O)(O)O)cc1F [II, Anhydride of 1-([2-{hydroxyethoxy}ethoxy]methylene)-5-fluorouracil and methylenediphosphonic acid] | 0,667 | 0,085
6 | O=c1[nH]c(=O)n(C2OC(COP(=O)(O)OP(=O)(O)CP(=O)(O)O)C(O)C2O)cc1F (centres unmarked) [III, Anhydride of 5-fluorouridine-5'-monophosphoric acid and methylenediphosphonic acid] | 0,778 | 0,233
7 | CC(O)(P(=O)(O)O)P(=O)(O)OP(=O)(O)OCC1OC(n2cc(F)c(=O)[nH]c2=O)C(O)C1O (centres unmarked) [VI, Anhydride of 5-fluorouridine-5'-monophosphoric acid and 1-hydroxyethylidene-1,1-bisphosphonic acid] | 0,567 | 0,172
